These are yes or no findings as the source states them, for the method shown. Binding seen in cells or lysates may run through a third protein. A result given as binding can be weak or reduced; the word gives no strength.
Biological target: T1, RBFOX2 (human (endogenous in U87MG)) (UniProt O43251)
T1 sequence: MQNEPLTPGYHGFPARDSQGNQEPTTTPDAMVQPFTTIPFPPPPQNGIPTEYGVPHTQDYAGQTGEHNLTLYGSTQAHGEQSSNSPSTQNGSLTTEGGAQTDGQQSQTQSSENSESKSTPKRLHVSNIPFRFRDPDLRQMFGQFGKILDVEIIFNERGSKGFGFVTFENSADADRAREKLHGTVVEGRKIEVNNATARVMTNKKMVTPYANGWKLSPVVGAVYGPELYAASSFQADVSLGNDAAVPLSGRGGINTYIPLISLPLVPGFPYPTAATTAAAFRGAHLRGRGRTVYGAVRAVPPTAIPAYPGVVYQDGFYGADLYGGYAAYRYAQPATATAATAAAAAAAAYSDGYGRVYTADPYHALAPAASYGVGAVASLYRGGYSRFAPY
Experiment: co-IP; U87MG cell lysates (50 mM Tris-HCl pH 8.0, 150 mM NaCl, 0.5% NP-40, 10% glycerol, 50 U/mL benzonase) immunoprecipitated with rabbit IgG, SON antibody or RBFOX2 antibody and protein A-Sepharose at 4 °C overnight; Western blot

binding: binds
Substance: hnRNP H (human (endogenous in U87MG))
